These are yes or no findings as the source states them, for the method shown. Some binding calls cover weakened binding; strength is not graded here. Values belong to the molecule of their own block, whether it stands above or below them.
Experiments:
Snf2 (S. cerevisiae) [1] = molecular target: Snf2 (S. cerevisiae) (UniProt P22082); assay: EM reconstruction; endogenous Snf2-Arp7-Arp9 catalytic core obtained from S. cerevisiae; 3D structure fitted with PDB 4I6M and 5HZR
Snf2 (S. cerevisiae) [2] = molecular target: Snf2 (S. cerevisiae) (UniProt P22082); assay: EM reconstruction (negative stain) with 3D difference mapping of subunit deletion mutants; endogenous SWI/SNF affinity purified from S. cerevisiae; intact complex compared with complexes lacking one subunit; crystal structures fitted as rigid bodies; read together with cited CX-MS data
Snf5 (S. cerevisiae) = Snf5 (S. cerevisiae) (UniProt P18480); assay: as above
Snf2 (S. cerevisiae) [3] = molecular target: Snf2 (S. cerevisiae) (UniProt P22082); assay: EM reconstruction; endogenous Snf2-Arp7-Arp9 catalytic core obtained from S. cerevisiae; 3D structure fitted with PDB 4I6M and 5HZR; remark: listed apart in the source

Amino acid sequences for entries named in this document (tags omitted).
UniProt P22082: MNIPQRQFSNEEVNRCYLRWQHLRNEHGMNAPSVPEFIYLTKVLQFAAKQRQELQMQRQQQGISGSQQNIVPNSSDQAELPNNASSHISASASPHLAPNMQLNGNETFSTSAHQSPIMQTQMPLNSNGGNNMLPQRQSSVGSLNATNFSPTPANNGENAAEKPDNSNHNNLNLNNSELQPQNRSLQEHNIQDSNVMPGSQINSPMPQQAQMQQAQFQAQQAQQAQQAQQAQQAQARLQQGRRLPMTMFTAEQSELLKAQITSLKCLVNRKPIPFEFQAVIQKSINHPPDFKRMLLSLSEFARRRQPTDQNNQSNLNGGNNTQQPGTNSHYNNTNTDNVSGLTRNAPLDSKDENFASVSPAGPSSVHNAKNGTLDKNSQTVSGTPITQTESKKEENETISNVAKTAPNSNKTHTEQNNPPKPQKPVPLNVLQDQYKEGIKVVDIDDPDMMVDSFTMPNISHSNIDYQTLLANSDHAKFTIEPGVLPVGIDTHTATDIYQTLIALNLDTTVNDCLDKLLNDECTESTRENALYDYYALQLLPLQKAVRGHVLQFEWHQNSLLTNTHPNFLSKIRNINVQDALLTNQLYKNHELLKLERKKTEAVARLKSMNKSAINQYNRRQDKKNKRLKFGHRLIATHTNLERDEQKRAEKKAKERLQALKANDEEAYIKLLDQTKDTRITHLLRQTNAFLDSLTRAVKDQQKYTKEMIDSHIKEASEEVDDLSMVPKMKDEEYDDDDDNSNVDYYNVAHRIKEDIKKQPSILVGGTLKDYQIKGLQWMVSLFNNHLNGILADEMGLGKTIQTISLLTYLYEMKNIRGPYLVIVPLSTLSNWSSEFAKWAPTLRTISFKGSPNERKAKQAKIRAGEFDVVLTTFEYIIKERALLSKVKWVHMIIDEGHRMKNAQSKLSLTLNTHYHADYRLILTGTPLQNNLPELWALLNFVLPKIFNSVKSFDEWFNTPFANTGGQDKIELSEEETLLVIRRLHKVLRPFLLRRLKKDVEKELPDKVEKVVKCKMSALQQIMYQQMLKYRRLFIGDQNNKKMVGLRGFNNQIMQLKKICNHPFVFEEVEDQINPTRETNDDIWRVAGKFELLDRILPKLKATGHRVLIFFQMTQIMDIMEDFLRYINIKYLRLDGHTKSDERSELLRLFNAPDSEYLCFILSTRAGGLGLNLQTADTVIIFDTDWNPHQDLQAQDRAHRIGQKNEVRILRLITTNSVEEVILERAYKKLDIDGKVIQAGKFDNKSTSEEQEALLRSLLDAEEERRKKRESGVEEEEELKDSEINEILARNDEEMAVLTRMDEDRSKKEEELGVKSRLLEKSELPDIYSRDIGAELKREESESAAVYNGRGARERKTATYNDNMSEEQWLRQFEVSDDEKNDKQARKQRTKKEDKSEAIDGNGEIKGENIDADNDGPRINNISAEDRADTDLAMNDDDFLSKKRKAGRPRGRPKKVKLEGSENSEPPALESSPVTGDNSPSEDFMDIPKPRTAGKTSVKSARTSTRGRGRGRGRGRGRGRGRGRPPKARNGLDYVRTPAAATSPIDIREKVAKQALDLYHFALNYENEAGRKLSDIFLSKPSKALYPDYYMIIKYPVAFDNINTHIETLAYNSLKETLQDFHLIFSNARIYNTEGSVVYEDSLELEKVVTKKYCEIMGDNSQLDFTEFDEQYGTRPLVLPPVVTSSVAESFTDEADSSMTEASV
UniProt P18480: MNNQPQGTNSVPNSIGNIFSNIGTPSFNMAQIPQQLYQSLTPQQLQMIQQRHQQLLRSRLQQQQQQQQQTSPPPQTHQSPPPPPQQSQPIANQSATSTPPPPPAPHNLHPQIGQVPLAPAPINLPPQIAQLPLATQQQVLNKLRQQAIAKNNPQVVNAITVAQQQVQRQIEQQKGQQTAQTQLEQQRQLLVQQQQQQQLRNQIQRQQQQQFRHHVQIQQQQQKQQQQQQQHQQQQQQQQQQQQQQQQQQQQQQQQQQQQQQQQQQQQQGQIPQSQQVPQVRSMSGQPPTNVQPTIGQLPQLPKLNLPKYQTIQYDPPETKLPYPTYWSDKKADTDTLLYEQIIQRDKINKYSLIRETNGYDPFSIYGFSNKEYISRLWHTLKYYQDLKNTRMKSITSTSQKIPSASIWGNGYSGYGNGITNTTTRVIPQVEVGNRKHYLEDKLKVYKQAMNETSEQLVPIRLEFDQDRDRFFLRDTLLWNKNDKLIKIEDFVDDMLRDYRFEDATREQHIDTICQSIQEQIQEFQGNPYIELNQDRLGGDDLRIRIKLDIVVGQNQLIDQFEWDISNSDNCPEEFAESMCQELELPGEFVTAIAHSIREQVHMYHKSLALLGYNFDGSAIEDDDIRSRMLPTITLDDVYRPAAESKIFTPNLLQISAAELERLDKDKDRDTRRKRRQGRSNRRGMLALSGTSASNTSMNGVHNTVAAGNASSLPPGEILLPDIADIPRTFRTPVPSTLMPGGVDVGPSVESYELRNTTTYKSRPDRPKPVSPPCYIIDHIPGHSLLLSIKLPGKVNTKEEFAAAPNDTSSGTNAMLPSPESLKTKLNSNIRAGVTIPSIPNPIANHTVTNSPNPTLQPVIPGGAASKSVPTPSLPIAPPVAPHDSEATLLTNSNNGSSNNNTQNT
UniProt Q12406: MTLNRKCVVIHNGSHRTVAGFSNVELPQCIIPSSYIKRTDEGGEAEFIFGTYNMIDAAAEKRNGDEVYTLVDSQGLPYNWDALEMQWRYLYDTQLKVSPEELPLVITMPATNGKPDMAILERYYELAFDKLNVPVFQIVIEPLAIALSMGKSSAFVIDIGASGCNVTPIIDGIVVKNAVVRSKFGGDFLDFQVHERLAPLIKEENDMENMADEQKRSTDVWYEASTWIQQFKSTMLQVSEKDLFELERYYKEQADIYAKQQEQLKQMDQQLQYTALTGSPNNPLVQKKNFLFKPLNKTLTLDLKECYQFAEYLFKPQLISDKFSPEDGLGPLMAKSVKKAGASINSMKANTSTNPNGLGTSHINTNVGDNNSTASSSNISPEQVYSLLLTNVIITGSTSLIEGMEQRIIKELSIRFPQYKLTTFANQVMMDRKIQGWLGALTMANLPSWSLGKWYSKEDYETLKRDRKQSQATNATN
UniProt Q05123: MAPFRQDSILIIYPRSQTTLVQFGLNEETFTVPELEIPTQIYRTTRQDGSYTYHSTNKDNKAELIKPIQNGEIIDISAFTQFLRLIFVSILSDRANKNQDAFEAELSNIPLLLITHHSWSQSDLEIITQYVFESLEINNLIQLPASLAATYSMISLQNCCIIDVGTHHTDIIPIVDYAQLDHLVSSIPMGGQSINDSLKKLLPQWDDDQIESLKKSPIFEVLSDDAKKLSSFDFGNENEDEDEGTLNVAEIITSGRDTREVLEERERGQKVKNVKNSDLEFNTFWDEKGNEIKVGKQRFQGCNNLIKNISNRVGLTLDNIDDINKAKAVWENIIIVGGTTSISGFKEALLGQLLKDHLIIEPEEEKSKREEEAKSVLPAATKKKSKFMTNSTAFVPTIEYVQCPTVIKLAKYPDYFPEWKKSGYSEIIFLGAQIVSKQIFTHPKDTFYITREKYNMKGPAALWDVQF

Molecule: Arp7 (from UniProt Q12406 1-477)
binding (Snf2 (S. cerevisiae) [1]): binds

Molecule: Arp9 (from UniProt Q05123 1-467)
binding (Snf2 (S. cerevisiae) [1]): binds

Molecule: Snf5 (from UniProt P18480 1-905)
binding (Snf2 (S. cerevisiae) [2]): binds

Other lines, results leading:

binding (Snf5 (S. cerevisiae)): binds
B1: Swi1 (protein, UniProt P09547 1-1314)
chain: MDFFNLNNNNNNNNTTTTTTTTNNNNTNNNNTNNNNNPANNTNNNNSTGHSSNTNNNTNNNNTNTGASGVDDFQNFFDPKPFDQNLDSNNNNSNSNNNDNNNSNTVASSTNFTSPTAVVNNAAPANVTGGKAANFIQNQSPQFNSPYDSNNSNTNLNSLSPQAILAKNSIIDSSNLPLQAQQQLYGGNNNNNSTGIANDNVITPHFITNVQSISQNSSSSTPNTNSNSTPNANQQFLPFNNSASNNGNLTSNQLISNYAASNSMDRSSSASNEFVPNTSDNNNNSNNHNMRNNSNNKTSNNNNVTAVPAATPANTNNSTSNANTVFSERAAMFAALQQKQQQRFQALQQQQQQQQNQQQQNQQPQQQQQQQQNPKFLQSQRQQQQRSILQSLNPALQEKISTELNNKQYELFMKSLIENCKKRNMPLQSIPEIGNRKINLFYLYMLVQKFGGADQVTRTQQWSMVAQRLQISDYQQLESIYFRILLPYERHMISQEGIKETQAKRIFLQQFLQELLKKVQQQQQAAALANANNNINSASSAPTPAAPGASVPATAAPGTEAGIVPVSANTPKSLNSNININVNNNNIGQQQVKKPRKQRVKKKTKKELELERKEREDFQKRQQKLLEDQQRQQKLLLETKLRQQYEIELKKLPKVYKRSIVRNYKPLINRLKHYNGYDINYISKIGEKIDSNKPIFLFAPELGAINLHALSMSLQSKNLGEINTALNTLLVTSADSNLKISLVKYPELLDSLAILGMNLLSNLSQNVVPYHRNTSDYYYEDAGSNQYYVTQHDKMVDKIFEKVNNNATLTPNDSNDEKVTILVDSLTGNQLPTPTPTEMEPDLDTECFISMQSTSPAVKQWDLLPEPIRFLPNQFPLKIHRTPYLTSLKKIKDEIDDPFTKINTRGAEDPKVLINDQLSTISMILRNISFSDNNSRIMSRNFYLKRFISDLLWLVLIHPENFTCNRKILNFKKDLVIVLSNISHLLEIASSIDCLLILILVISFGQPKLNPMASSSSFGSESLTFNEFQLQWGKYQTFGVDILAKLFSLEKPNLNYFKSILLNKNTGNNLYDRNSNNNHKDKKLLRRLLNLYNDNNKNNNNRHNLLNDVVSFLFSAIPLQQVLSQSADPSLLIDQFSPVISQSLTSILVIVQKILPLSNEVFEISENNSDSNSNNNGNKDSSFNFNKNLPFVWLSSEENIGSGLLKLSEIILNINNSTSKNTLLQQQNYSKVLLPSINISCVQLIKCLVEKSICFENCLNNDPEILKKIASIPNLFPTDLEIFQLFTNPSVDIQIINQYQLLYNLKNDILTNLE

binding (Snf2 (S. cerevisiae) [3]): binds
B2: Rtt102 (protein, UniProt P53330 1-157)
chain: MDPQTLITKANKVSYYGNPTSKESWRYDWYQPSKVSSNVQQPQQQLGDMENNLEKYPFRYKTWLRNQEDEKNLQRESCEDILDLKEFDRRILKKSLMTSHTKGDTSKATGAPSANQGDEALSVDDIRGAVGNSEAIPGLSAGVNNDNTKESKDVKMN
